Laboratory results as given in PubChem BioAssay AID896 (National Center for Advancing Translational Sciences (NCATS), 2007).
Inconclusive means that the source gave no clear call. Such entries were picked first, then a sample of the others. Entries that show only a call come without a potency. Potencies beside an inconclusive call are fits to weak or partial responses and may not hold up. Calls of active or inactive are those of the source. Calls come from the whole dose curve; as a rule, active = well fitted inhibition curve with a large enough effect in the main read-out, with a control signal flat; inconclusive = small, poorly fitted or top-dose-only effect, or a change in a side signal; inactive = no such curve, though single readings can be large or run the other way.

Target: Caspase-1 (Homo sapiens) (UniProt P29466)
Experiment: Confirmation Concentration-Response Assay for Allosteric/Competitive Inhibitors of Caspase-1
Excerpt: NIH Molecular Libraries Screening Centers Network [MLSCN]
NIH Chemical Genomics Center [NCGC]
PI Name: Dr. James Wells,
Dr. Enrique Perez-Paya, Dr.Janice Williams, Dr. Dennis Wolan, a person
The caspases (Cysteine Aspartyl Protease) comprise a related family of 14 dimeric proteases that are critical mediators of apoptosis (programmed cell death) and inflammation. The caspases represent an important class of drug targets for stroke, ischemia, cancer and inflammatory diseases. […] One goal of this project was to identify compounds that act as allosteric inhibitors via stabilizing the procaspase form of the enzyme. […]
The biochemical assay was configured using purified caspase 1 at a high enzyme concentration to promote formation of the homodimers and thus facilitate the identification of allosteric inhibitors. […] After initiation of the assay with substrate the plates were rapidly read using an automated robotic system (Kalypsys, Inc.) to maintain consistent timing. […] Product formation was also measured after 1 hour. […]
Caspase 1 was prepared in buffer (50 mM HEPES pH 7.5, 50 mM KCl, 200 mM NaCl, 10 mM DTT, 0.1% CHAPS) at a concentration of 66.6 nM and 3 uL was dispensed to all wells using black solid Kalypsys 1536-well plates. […] The plates were then exposed using 405 nm excitation/520 nm emission filters for 4 sec and read at 20 sec intervals for 3 min. […]

COc1ccc2c(c1)C(=O)N(c1ccccc1OC)C(=O)C2
Potency: inconclusive: 25.1 µM [inhibitor, partial curve]

O=C(Nc1ccc2c(c1)OCO2)[C@@H]1[C@@H]2C(=O)N(C3CCCCC3)C(=O)[C@@H]2C2c3ccccc3C=CN21 (some centres not stated)
Potency: inactive
